Data taken from article PMC6443996, “1‐Hydroxy‐xanthine derivatives inhibit the human Caf1 nuclease and Caf1‐containing nuclease complexes via Mg^2+‐dependent binding” (FEBS Open Bio, 2019).
Results are given in words; binding and its absence hold for the method and conditions named. Some results given as binding are weak or reduced against the parent protein; the word gives no strength.

Sequences of proteins named here, by UniProt entry; tags and fusion partners are left off. Residues count along the entry.
UniProt A5YKK6, residues 1093-1595: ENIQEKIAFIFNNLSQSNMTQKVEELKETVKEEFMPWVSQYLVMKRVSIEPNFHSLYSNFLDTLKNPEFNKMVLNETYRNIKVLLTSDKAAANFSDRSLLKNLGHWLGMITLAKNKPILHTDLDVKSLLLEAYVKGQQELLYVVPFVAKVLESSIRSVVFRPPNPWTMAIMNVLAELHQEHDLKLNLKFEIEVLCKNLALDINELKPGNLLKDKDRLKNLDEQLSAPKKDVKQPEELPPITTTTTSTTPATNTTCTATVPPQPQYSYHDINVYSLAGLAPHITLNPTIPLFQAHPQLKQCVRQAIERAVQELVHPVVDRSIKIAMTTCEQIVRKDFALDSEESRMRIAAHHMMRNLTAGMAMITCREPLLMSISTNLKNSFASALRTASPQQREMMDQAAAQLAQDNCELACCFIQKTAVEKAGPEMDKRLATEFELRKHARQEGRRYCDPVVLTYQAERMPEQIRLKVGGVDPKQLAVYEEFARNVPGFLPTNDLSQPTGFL

Biological target: CNOT1 (MIF4G and DUF3819 domains; amino acids 1093–1595) (human) (UniProt A5YKK6)
Test: co-expression and co-purification by affinity chromatography; proteins co-expressed in E. coli, complex purified by affinity chromatography as described before; purified proteins separated by 14% SDS/PAGE, Coomassie Brilliant Blue

binding: binds
Substance: CNOT9 (ARM domain; amino acids 33–283) (from UniProt Q92600 33-283) (domain or fragment)
